This is one part of the list.

By UniProt entry, the sequences of proteins in these tests, tags left out. Where a name states a change or a piece, a line headed by the entry shows the natural chain unless it says otherwise.
UniProt Q9H082: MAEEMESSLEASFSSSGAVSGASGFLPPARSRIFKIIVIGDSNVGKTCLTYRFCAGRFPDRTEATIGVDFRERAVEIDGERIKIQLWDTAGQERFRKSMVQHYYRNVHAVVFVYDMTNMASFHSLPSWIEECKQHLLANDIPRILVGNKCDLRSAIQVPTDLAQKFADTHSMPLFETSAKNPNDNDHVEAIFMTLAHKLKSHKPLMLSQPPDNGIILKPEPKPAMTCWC
UniProt Q9BUV8: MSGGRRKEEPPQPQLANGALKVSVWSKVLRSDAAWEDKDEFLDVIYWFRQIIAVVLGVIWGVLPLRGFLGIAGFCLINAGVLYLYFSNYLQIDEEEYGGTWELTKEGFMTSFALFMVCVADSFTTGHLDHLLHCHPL
UniProt Q92930: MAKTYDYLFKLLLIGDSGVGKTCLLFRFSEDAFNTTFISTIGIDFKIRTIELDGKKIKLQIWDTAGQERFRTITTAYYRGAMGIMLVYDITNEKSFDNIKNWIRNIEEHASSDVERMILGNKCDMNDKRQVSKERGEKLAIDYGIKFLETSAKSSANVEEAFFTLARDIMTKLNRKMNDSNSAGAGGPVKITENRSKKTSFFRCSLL
UniProt P11233: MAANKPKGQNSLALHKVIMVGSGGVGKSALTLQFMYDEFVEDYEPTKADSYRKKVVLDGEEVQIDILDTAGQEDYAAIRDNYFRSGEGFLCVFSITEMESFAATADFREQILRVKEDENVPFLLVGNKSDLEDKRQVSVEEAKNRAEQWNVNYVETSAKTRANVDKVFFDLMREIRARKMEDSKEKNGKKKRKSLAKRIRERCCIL
UniProt Q9UKM9: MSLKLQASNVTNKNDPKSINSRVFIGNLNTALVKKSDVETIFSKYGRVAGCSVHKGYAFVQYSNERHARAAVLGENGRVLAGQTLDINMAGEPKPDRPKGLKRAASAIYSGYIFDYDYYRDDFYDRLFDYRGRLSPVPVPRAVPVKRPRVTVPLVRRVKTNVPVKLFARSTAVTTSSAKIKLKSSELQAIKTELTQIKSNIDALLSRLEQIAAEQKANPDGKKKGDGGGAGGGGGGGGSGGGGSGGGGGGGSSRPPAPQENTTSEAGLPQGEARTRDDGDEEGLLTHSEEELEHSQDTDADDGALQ
UniProt Q8WZA2: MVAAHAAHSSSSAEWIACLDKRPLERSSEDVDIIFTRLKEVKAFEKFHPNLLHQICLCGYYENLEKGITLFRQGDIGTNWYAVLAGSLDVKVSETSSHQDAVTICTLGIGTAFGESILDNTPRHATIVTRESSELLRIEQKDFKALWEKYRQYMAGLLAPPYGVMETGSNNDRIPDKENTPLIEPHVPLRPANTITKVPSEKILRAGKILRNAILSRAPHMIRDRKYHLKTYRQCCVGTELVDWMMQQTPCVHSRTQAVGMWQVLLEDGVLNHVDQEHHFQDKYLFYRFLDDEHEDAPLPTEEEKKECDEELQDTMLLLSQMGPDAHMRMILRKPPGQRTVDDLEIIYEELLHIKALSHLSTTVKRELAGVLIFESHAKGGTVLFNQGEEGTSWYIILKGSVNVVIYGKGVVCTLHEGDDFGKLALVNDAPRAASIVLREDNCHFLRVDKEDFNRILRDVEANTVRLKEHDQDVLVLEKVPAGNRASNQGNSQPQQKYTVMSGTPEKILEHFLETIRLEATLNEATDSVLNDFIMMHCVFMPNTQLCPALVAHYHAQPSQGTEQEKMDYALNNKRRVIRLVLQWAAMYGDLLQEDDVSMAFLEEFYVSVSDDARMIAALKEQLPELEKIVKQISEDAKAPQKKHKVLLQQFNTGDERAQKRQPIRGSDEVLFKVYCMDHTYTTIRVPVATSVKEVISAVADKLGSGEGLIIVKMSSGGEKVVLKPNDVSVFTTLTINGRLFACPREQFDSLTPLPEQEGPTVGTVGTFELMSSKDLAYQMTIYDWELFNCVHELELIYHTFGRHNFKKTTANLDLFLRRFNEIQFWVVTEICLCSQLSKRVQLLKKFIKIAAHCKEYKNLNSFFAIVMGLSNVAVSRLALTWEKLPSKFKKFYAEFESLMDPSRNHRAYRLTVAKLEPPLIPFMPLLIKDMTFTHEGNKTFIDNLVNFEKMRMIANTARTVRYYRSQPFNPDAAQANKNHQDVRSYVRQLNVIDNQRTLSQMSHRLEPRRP
UniProt Q8TDY2, whole entry, looked up: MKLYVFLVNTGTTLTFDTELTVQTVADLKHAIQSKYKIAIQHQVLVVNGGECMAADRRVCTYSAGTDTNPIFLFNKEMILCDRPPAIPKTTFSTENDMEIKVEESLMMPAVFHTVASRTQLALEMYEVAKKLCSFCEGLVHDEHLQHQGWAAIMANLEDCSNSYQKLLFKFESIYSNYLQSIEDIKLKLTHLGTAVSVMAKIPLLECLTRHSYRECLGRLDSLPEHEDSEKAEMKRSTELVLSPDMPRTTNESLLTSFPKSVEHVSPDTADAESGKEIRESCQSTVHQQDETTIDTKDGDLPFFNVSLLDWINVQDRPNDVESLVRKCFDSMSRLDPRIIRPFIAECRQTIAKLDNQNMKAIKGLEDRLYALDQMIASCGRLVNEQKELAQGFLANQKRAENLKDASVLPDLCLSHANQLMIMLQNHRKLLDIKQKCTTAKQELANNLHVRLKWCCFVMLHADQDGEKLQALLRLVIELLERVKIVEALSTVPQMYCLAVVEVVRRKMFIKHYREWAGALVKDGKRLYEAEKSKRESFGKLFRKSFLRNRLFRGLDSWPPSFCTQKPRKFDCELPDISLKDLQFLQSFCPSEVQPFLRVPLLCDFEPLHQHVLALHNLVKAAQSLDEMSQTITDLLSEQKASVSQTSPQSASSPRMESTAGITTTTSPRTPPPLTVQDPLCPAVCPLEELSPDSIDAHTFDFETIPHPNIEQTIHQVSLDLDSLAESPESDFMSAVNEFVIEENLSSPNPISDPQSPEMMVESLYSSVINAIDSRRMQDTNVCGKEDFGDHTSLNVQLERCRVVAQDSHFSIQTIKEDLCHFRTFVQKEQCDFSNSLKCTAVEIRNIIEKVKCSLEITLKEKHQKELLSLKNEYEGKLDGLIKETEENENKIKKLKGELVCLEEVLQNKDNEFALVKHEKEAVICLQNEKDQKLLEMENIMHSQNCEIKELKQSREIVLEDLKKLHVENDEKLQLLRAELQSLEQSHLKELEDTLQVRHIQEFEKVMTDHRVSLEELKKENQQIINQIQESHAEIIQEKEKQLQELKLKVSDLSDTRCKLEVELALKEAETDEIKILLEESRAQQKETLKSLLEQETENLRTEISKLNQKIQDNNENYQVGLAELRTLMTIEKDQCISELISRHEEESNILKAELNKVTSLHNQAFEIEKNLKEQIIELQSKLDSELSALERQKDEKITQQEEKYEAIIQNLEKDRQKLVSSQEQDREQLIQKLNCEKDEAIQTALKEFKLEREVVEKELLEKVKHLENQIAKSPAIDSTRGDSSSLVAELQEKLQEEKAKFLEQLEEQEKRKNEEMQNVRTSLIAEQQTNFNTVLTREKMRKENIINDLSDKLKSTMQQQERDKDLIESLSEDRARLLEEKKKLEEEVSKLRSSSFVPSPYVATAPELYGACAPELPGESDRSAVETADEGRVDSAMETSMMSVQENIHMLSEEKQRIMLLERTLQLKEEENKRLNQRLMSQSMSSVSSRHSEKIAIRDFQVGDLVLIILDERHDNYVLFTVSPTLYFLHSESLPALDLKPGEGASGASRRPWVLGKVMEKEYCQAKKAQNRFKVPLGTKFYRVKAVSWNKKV
UniProt Q9H2M9: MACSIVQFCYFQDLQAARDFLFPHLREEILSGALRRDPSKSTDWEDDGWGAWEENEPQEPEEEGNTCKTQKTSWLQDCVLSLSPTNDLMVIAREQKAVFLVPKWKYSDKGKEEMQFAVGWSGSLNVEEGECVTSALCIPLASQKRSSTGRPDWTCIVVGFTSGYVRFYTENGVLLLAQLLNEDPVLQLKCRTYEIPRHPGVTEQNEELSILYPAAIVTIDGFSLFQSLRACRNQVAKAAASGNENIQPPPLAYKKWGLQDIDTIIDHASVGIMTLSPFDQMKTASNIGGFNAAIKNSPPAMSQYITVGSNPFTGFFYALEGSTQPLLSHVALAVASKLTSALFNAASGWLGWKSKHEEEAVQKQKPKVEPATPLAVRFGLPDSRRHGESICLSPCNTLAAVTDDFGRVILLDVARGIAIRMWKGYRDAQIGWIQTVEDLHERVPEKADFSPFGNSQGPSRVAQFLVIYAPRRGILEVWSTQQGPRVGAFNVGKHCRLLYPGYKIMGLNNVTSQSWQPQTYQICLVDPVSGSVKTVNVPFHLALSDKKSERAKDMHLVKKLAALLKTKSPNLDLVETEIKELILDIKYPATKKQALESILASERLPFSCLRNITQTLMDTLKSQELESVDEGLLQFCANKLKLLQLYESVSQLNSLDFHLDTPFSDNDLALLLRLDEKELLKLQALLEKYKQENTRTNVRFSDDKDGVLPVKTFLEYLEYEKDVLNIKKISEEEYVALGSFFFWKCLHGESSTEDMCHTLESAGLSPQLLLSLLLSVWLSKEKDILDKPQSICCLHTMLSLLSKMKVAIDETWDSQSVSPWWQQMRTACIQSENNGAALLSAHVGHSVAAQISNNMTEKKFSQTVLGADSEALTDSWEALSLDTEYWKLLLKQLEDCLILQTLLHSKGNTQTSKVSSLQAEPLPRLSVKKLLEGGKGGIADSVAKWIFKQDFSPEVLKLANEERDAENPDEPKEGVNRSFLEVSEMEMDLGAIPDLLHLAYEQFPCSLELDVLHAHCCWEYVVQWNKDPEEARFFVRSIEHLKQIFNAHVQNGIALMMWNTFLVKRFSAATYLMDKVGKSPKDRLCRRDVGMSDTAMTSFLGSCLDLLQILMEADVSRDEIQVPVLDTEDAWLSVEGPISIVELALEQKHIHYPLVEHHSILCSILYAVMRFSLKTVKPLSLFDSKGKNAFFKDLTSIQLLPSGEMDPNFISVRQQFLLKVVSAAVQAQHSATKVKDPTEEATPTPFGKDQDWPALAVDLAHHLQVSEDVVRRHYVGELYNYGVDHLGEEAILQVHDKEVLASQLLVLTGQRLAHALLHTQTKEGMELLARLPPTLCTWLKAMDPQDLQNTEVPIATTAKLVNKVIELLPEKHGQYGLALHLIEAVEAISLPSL
UniProt Q86X27: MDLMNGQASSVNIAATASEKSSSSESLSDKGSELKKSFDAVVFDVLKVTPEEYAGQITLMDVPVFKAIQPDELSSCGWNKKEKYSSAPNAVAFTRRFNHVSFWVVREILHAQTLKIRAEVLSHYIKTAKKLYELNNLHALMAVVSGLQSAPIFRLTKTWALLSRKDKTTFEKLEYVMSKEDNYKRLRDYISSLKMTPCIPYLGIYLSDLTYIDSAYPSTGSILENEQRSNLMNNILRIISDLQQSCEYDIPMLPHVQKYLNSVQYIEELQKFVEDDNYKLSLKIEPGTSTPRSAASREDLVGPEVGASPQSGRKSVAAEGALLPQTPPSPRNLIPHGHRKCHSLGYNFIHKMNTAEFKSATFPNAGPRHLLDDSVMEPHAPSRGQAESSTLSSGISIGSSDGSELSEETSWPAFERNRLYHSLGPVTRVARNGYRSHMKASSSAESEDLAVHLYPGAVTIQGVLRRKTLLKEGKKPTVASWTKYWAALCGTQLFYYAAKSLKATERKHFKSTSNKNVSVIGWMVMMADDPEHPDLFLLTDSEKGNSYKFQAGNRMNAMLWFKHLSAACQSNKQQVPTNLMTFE

Compound in one test: C1CN(CCC1(CC2=CC=C(C=C2)Cl)N)C3=NC=NC4=C3C=CN4
Nature of the test: log2 fold change, soluble protein after heating vs DMSO (PISA); higher = thermal stabilisation; K562 cells, 10 uM, 30 min; active = over 0.2 and 3.5 SD of the protein, either way, in both replicates (recomputed). The procedure, abridged:
(§1)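 Soluble protein was defined as the supernatant after 21,000xg for 90 min. It came from K562 cells at 2×10^6 cells/mL given 10 μM compound for 30 min, heated in aliquots for 3 min across 48°C-58°C, pooled, and extracted in PBS with 0.5% NP-40 at 4°C, and was quantified by TMTpro 16plex LC-MS/MS with equalised channel sums. Thermal stability against control samples, from duplicates, is reported as log2 fold change.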
As to RAB3IL1 (UniProt Q8TBN0), the log2 fold change is inactive: -0.013.
Take RAP2C (UniProt Q9Y3L5): the log2 fold change is inactive: 0.034.
For the target RABGAP1L isoform 3 (UniProt Q5R372), the log2 fold change was inactive: 0.007.
RABGGTA (UniProt Q92696): the log2 fold change was inactive: 0.122.
Regarding RAD50 isoform 2 (UniProt Q92878), the log2 fold change was inactive: 0.029.
On to RAP1B (UniProt F5GZG1), for which the log2 fold change is inactive: 0.072.
For RBM25 (UniProt P49756), the log2 fold change is inactive: -0.137.
For R3HDM4 (UniProt Q96D70), the log2 fold change was inactive: -0.139.
On to RBM33 (UniProt Q96EV2), for which the log2 fold change is inactive: 0.038.
As for RBBP5 isoform 2 (UniProt Q15291), the log2 fold change is inactive: -0.122.
Consider RAB33B (UniProt Q9H082), for which the log2 fold change is inactive: 0.118.
Take RARS (UniProt P54136): the log2 fold change is inactive: -0.155.
Take RBM26 isoform 2 (UniProt Q5T8P6): the log2 fold change was inactive: 0.012.
Consider RAD51B (UniProt O15315), for which the log2 fold change is inactive: 0.138.
On to RAB5IF isoform 5 (UniProt Q9BUV8), for which the log2 fold change was inactive: 0.267.
RAB8B (UniProt Q92930): the log2 fold change was inactive: -0.043.
Turning to RACK1 (UniProt D6RHH4), the log2 fold change is inactive: 0.038.
RALA (UniProt P11233): the log2 fold change was inactive: 0.104.
Consider RAB3IL1 (UniProt E9PK89), for which the log2 fold change is inactive: 0.004.
On to RABGAP1L isoform 5 (UniProt Q5R372), for which the log2 fold change was inactive: 0.016.
As to RAVER1 (UniProt E9PAU2), the log2 fold change is inactive: -0.011.
Same read-out and setting: to RAI14 isoform 2 (UniProt Q9P0K7) belongs inactive: 0.03.
The same measure, in the same setting: to RALY (UniProt Q9UKM9) belongs inactive: -0.22; to RAPGEF4 (UniProt Q8WZA2), inactive: 0.18.
RB1CC1 (UniProt Q8TDY2): the log2 fold change is inactive: 0.022.
Consider RAB11FIP1 (UniProt Q6WKZ4), for which the log2 fold change is inactive: 0.027.
On the same count and under the same terms, as for RB1 (UniProt P06400), the figure is inactive: -0.02; as for RAB3GAP2 (UniProt Q9H2M9), inactive: -0.018.
As to RAF1 isoform 2 (UniProt P04049), the log2 fold change is inactive: 0.022.
Consider RALGPS2 (UniProt Q86X27), for which the log2 fold change was inactive: 0.154.

Compound in a further test: C1COCCN1CCN2C3=CC=CC=C3N=C2NC(=O)C4=CC(=CC=C4)[N+](=O)[O-] [IRAK-1-4 Inhibitor I]
Described as above. The procedure, abridged:
as §1
As for RAB3IL1 (UniProt Q8TBN0), the log2 fold change is inactive: 0.018.
As to RABGAP1L isoform 3 (UniProt Q5R372), the log2 fold change is inactive: 0.057.
For the target RABGGTA (UniProt Q92696), the log2 fold change was inactive: 0.064.
With RAD50 isoform 2 (UniProt Q92878), the log2 fold change is inactive: -0.005.
Turning to RAP1B (UniProt F5GZG1), the log2 fold change was inactive: 0.
For RBM25 (UniProt P49756), the log2 fold change was inactive: 0.031.
Turning to RBBP7 (UniProt Q16576), the log2 fold change was inactive: -0.003.
On to RBM33 (UniProt Q96EV2), for which the log2 fold change was inactive: -0.058.
As to RAB33B (UniProt Q9H082), the log2 fold change was inactive: 0.072.
Turning to RARS (UniProt P54136), the log2 fold change was inactive: -0.087.
For the target RBM26 isoform 2 (UniProt Q5T8P6), the log2 fold change is inactive: -0.086.
For RAB5IF isoform 5 (UniProt Q9BUV8), the log2 fold change is inactive: -0.082.
For RAB8B (UniProt Q92930), the log2 fold change was inactive: 0.028.
Regarding RALA (UniProt P11233), the log2 fold change is inactive: -0.005.
In the case of RAB3IL1 (UniProt E9PK89), the log2 fold change is inactive: -0.012.
Same read-out and setting: as for RABGAP1L isoform 5 (UniProt Q5R372), the figure is inactive: 0.04; as for RAVER1 (UniProt E9PAU2), inactive: -0.062; as for RALY (UniProt Q9UKM9), inactive: -0.315.
In the case of RAPGEF4 (UniProt Q8WZA2), the log2 fold change was inactive: -0.184.
Still for that read-out and setting: to RB1CC1 (UniProt Q8TDY2) belongs inactive: 0.092; to RAB30 (UniProt Q15771), inactive: -0.051; to RAB11FIP1 (UniProt Q6WKZ4), inactive: 0.014.
Regarding RB1 (UniProt P06400), the log2 fold change was inactive: 0.015.
Regarding RAB3GAP2 (UniProt Q9H2M9), the log2 fold change is inactive: -0.079.
For the target RAF1 isoform 2 (UniProt P04049), the log2 fold change is inactive: -0.038.
In the case of RALGPS2 (UniProt Q86X27), the log2 fold change was inactive: -0.249.

Compound in another test: C=CC(=O)N1CCC[C@@H](n2nc(-c3ccc(Oc4ccccc4)cc3)c3c(N)ncnc32)C1 [ibrutinib]
The description is as above. Summed up:
as §1
Turning to RAB3IL1 (UniProt Q8TBN0), the log2 fold change is inactive: -0.009.
As to RAP2C (UniProt Q9Y3L5), the log2 fold change is inactive: 0.016.
In the case of RABGAP1L isoform 3 (UniProt Q5R372), the log2 fold change was inactive: 0.02.
With RABGGTA (UniProt Q92696), the log2 fold change is inactive: -0.021.
Regarding RAD50 isoform 2 (UniProt Q92878), the log2 fold change is inactive: -0.004.
Take RAP1B (UniProt F5GZG1): the log2 fold change was inactive: 0.059.
Consider RBM25 (UniProt P49756), for which the log2 fold change is inactive: 0.01.
On to RBBP7 (UniProt Q16576), for which the log2 fold change was inactive: -0.02.
As to R3HDM4 (UniProt Q96D70), the log2 fold change was inactive: 0.019.
Take RBM33 (UniProt Q96EV2): the log2 fold change was inactive: 0.024.
Take RBM28 (UniProt Q9NW13): the log2 fold change was inactive: -0.281.
As for RBBP5 isoform 2 (UniProt Q15291), the log2 fold change was inactive: -0.023.
Still for that read-out and setting: as for RAB33B (UniProt Q9H082), the figure is inactive: 0.016.
Turning to RARS (UniProt P54136), the log2 fold change was inactive: -0.024.
Consider RBM26 isoform 2 (UniProt Q5T8P6), for which the log2 fold change is inactive: 0.032.
As for RAD51B (UniProt O15315), the log2 fold change is inactive: -0.319.
On the same count and under the same terms, as for RAB5IF isoform 5 (UniProt Q9BUV8), the figure is inactive: 0.031; as for RAB8B (UniProt Q92930), inactive: -0.009; as for RACK1 (UniProt D6RHH4), inactive: 0.164.
As for RALA (UniProt P11233), the log2 fold change was inactive: 0.038.
Turning to RAB3IL1 (UniProt E9PK89), the log2 fold change was inactive: -0.021.
In the case of RABGAP1L isoform 5 (UniProt Q5R372), the log2 fold change is inactive: -0.031.
For RAVER1 (UniProt E9PAU2), the log2 fold change is inactive: 0.033.
The same measure, in the same setting: to RAI14 isoform 2 (UniProt Q9P0K7) belongs inactive: -0.141.
As to RALY (UniProt Q9UKM9), the log2 fold change was inactive: 0.001.
With RAPGEF4 (UniProt Q8WZA2), the log2 fold change is inactive: -0.025.
As for RB1CC1 (UniProt Q8TDY2), the log2 fold change is inactive: 0.094.
Consider RAB30 (UniProt Q15771), for which the log2 fold change is inactive: 0.071.
For the target RAB11FIP1 (UniProt Q6WKZ4), the log2 fold change was inactive: -0.009.
In the case of RB1 (UniProt P06400), the log2 fold change was inactive: 0.025.
With RAB3GAP2 (UniProt Q9H2M9), the log2 fold change is inactive: -0.016.
For RAF1 isoform 2 (UniProt P04049), the log2 fold change is inactive: -0.058.
Turning to RALGPS2 (UniProt Q86X27), the log2 fold change is inactive: 0.061.
